Data as given in PubChem BioAssay AID504808 (Drosophila RNAi Screening Center, 2011)
Screen: 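Fly genes required to hold E2F transcription in check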 (primary screen). Cell system: Drosophila S2 cells. Knock-down reagent: long dsRNA against Drosophila genes. Detection: 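Dual luciferase plate measurements; E2F-specific signal taken as firefly over Renilla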. Reading the numbers: E2F firefly: higher = more E2F reporter activity; Renilla normaliser: higher = more normaliser reporter signal. Rule for the call: 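a knock-down counted as active when the firefly/Renilla E2F signal rose above 50%, a threshold chosen arbitrarily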.
The screen tested about 21,000 reagents; shown is a random part of those with a known target gene and a result. Over the whole deposit, 18 (0.084%) got an active call. 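Raw counts without plate normalisation, one of two replicates; the ratio scores behind the calls were not deposited.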 Unmarked entries are inactive. The numbers tell different reagents against one gene apart. Names joined by + are all predicted targets of the reagent. No sequences are given here. Not stated in the record: the amount of reagent, the time to read-out.

| Target gene | dsRNA no. | E2F firefly, rep 1 | Renilla normaliser, rep 1 |
| --- | --- | --- | --- |
| Bdp1 | 1 | 96913 | 4546 |
| verm | 1 | 76565 | 3817 |
| Ten-m | 1 | 1.37e5 | 8093 |
| Ten-m | 2 | 1.44e5 | 7731 |
| Taf1 | 1 | 1.16e5 | 6149 |
| CG5174 | 1 | 76267 | 3729 |
| CG14982 | 1 | 71043 | 3728 |
| CG1792 | 1 | 50668 | 3332 |
| CG5828 | 1 | 1.63e5 | 5008 |
| mRpL18 | 1 | 1.02e5 | 3654 |
| Use1 | 1 | 92416 | 4467 |
| SmydA-7 | 1 | 71788 | 3356 |
| CG8272 | 1 | 3293 | 331 |

2 neighbouring reagents from above, quoted:
| Target gene | dsRNA no. | E2F firefly, rep 1 | Renilla normaliser, rep 1 |
| --- | --- | --- | --- |
| CG5174 | 1 | 76267 | 3729 |
| CG14982 | 1 | 71043 | 3728 |

The results go on.
| Target gene | dsRNA no. | E2F firefly, rep 1 | Renilla normaliser, rep 1 |
| --- | --- | --- | --- |
| Klp10A | 1 | 7491 | 792 |
| Qtzl | 1 | 1.32e5 | 6834 |
| CG10916 | 1 | 71113 | 3331 |
| GLaz | 1 | 1.01e5 | 4148 |
| CG12502 | 1 | 90264 | 3759 |
| CR40450 + CG32767 | 1 | 7234 | 772 |
| CG13358 | 1 | 1.27e5 | 5634 |
| E5 | 1 | 68026 | 2118 |
| E5 | 2 | 72707 | 5383 |
| Sec71 | 1 | 93319 | 4049 |
| CG13917 | 1 | 73295 | 3635 |
| CG4364 | 1 | 81120 | 3739 |
| CG15514 | 1 | 1829 | 888 |
| Best4 | 1 | 1.79e5 | 9072 |
| Ir54a + sub | 1 | 1.40e5 | 4763 |
| Six4 | 1 | 1.32e5 | 7160 |
| CG42268 | 1 | 1.16e5 | 8300 |
| CG42268 | 2 | 1.37e5 | 7696 |
| Jon99Fii | 1 | 1.30e5 | 6482 |
| cnir | 1 | 1.56e5 | 5343 |
| pen-2 | 1 | 1.68e5 | 6054 |
